# Assay results published in PubChem BioAssay AID1347426 (Functional Genomics Laboratory (NCATS/FGL), 2020).
# In all, about 31,000 sequences went through this assay and about 1,400 (4.5%) were called active.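 Rule for the calls: active = median seed-adjusted z-score above 1 or below -1; inactive = the rest.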 The list shows a part of the results.
# Assay: Novel Modifiers of Survival Motor Neuron (SMN) Protein: Gene Identification via Genome-wide siRNA Screen;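 note: luminescence tracks full-length SMN protein made from the SMN2 reporter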
# Details: HEK293T SMN2-luciferase reporter, siRNA knockdown, 72 h; actives lie on both sides
# Method in brief: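 Luciferase signal, proportional to full-length SMN made from an SMN2 cDNA reporter in stable HEK293T cells, was read 72 h after siRNA reverse transfection. Values were expressed as MAD scores after non-targeting-control normalization and log10 conversion; seed analysis flagged off-targets.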
row,Sequence,median seed-adjusted z-score
1,GGUAAAAGUGGAACUGAAATT against LBP,inactive: -0.207
2,UGGUGUACACUGUUACUCATT against LOC158381,inactive: 0
3,GGAAUAUACCUUCAUGUCATT against ZNF18,inactive: -0.27
4,GGAGAGCUCCUGAUGAGGATT against SLC1A7,inactive: -0.781
5,CGAGGUUUUGGAUUUAUUATT against DAZAP1,inactive: 0
6,CACCUGUCCUGACGAUUAATT against EPHA3,inactive: 0
7,AUUCAGAACUCGCUGCUGATT against ITGB1BP3,inactive: 0.0514
8,CAACUACCCUUUCUCAACATT against PRSS23,inactive: -0.77
9,CGGUUUAAGUCUAUCCAUUTT against RFNG,inactive: 0
10,CCAGGCUAAUGAUAUUGGATT against AKAP12,inactive: -0.104
11,CUGCAGUGCUGAUAAGGAUTT against PRMT2,inactive: 0.0895
12,CCACGAAGGGAGAACAGUUTT against CTCFL,inactive: -0.362
13,ACAGGAUUCCAGAAAUGGATT against REG1A,inactive: 0.596
14,CUGCCGCUAUGAACCACAATT against P2RX6,inactive: -0.351
15,CAAGGUCACUAUGAAGACATT against BPIL3,inactive: -0.0506
16,CAAGGAAUUUUUGACAAUUTT against CD244,inactive: 0
17,GGAUGAACUUUGGUGCGUUTT against TARDBP,inactive: 0.987
18,GAAAUUGCAUUUCAGCAAATT against ZP2,inactive: 0.0455
19,UGUGCUCAUGGUUCACAAATT against IKZF1,inactive: -0.298
20,CAACAGUUCCCGAGACUGATT against ZNF777,inactive: 0.128
21,AACGAAAUCUUGAAAAGCATT against HAND2,inactive: 0.0864
22,ACAUGAACGCGGCCAAUGUTT against MIF,inactive: 0.214
23,AGAUAAAAGUUGACAGUGATT against ATRX,inactive: -0.158
24,CACUGACAUUGUGGUGUUATT against HDDC3,inactive: 0.549
25,GGACUGCGUUGGUGAUGUATT against THBS1,inactive: -0.847
26,CAUCUUUUCUAGUUGAAAUTT against AK3L1,inactive: 0.0337
27,CAUUACACCUAACCAACAATT against GCNT3,inactive: 0

row,Sequence,median seed-adjusted z-score
1,CCGCGAAUCCAUGACAAUATT against UGCG,inactive: 0.492
2,GGUUCAUGUUUGCAAUCUUTT against POLR2B,active: -4.81
3,GCACCUCACCCAUCAAUGATT against RERE,inactive: 0.129
4,CACCAUUGAUCAGUCAGAATT against TOX4,inactive: 0
5,CCAGGAGUUUAACCUAGAGTT against GH1,inactive: -0.394
6,CCUUAGAUAUUGUAUGGGATT against EFCAB6,inactive: 0.206
7,GGCCUAAGCUAAAUCGAGATT against SKP2,inactive: -0.126
8,CAGAAGUUUUCACACCUAATT against ZNF141,inactive: 0.223
9,GCAACAUUUUGGGACUUGATT against TP53I3,inactive: 0.244
10,GCUGGAUCAUUCAAGCGCATT against CUBN,inactive: 0.0558
11,GCUCCCUCAUCAACGAACATT against PRSS1,inactive: -0.0208
12,GACGCGAUGUUCCCACUUATT against PDE9A,inactive: 0.708
13,CCUUAUAUCUCUACCCGUUTT against STXBP1,inactive: -0.0496
14,GGACCUGCUUGAAUAUGGATT against GLRX2,inactive: -0.244
15,GGCUUUCAGUUAUUAUGGUTT against SFRS7,inactive: 0.44
16,ACGCAAUCGUCGCAAACAATT against GTPBP5,inactive: 0.0354
17,GCUCAGUCUCUACUCUCAATT against MKL2,inactive: -0.863
18,CCGAUACGCGAGCCACUAATT against PSMB10,inactive: 0.00939
19,GAGGCAGUCUUAGAGGAAATT against SPATA21,active: -1.03
20,UCACGUCACUACUUAAAAATT against ZNF644,inactive: 0.389
21,CAAGCCCGUUUAAUAGUCATT against KIF14,inactive: 0
22,GACCCAUACAGAAAGUAGATT against SSR1,inactive: -0.434
23,AGACAUACAGUGUAGACAATT against ALPPL2,inactive: 0.331
24,GAGUAGGACAUAUCAGUAATT against GALNTL5,inactive: -0.363
25,CAGUUGCCUAUAUCCUAUATT against TDRKH,inactive: -0.434
26,CAGGUGAUGGUGUUCGAUATT against ZFYVE27,inactive: 0.0439
27,CCUGGAUUAUGAGCUCCUATT against CARD14,inactive: -0.104

# Reformatted bar-delimited: entries from further up.
row | Sequence | median seed-adjusted z-score
2 | UGGUGUACACUGUUACUCATT against LOC158381 | inactive: 0
5 | CGAGGUUUUGGAUUUAUUATT against DAZAP1 | inactive: 0
15 | CAAGGUCACUAUGAAGACATT against BPIL3 | inactive: -0.0506
19 | UGUGCUCAUGGUUCACAAATT against IKZF1 | inactive: -0.298
20 | CAACAGUUCCCGAGACUGATT against ZNF777 | inactive: 0.128
21 | AACGAAAUCUUGAAAAGCATT against HAND2 | inactive: 0.0864
2 | GGUUCAUGUUUGCAAUCUUTT against POLR2B | active: -4.81
6 | CCUUAGAUAUUGUAUGGGATT against EFCAB6 | inactive: 0.206
7 | GGCCUAAGCUAAAUCGAGATT against SKP2 | inactive: -0.126
8 | CAGAAGUUUUCACACCUAATT against ZNF141 | inactive: 0.223
12 | GACGCGAUGUUCCCACUUATT against PDE9A | inactive: 0.708
16 | ACGCAAUCGUCGCAAACAATT against GTPBP5 | inactive: 0.0354
17 | GCUCAGUCUCUACUCUCAATT against MKL2 | inactive: -0.863
18 | CCGAUACGCGAGCCACUAATT against PSMB10 | inactive: 0.00939
19 | GAGGCAGUCUUAGAGGAAATT against SPATA21 | active: -1.03
25 | CAGUUGCCUAUAUCCUAUATT against TDRKH | inactive: -0.434
